Measurements reported in PMC6937246.
No constants are given. Whether binding was seen depends on the method and setting. Some binding calls cover weakened binding; strength is not graded here.

By UniProt entry, the sequences of proteins in these tests, tags left out. Residues count along the entry.
UniProt Q7L8A9, residues 44-315: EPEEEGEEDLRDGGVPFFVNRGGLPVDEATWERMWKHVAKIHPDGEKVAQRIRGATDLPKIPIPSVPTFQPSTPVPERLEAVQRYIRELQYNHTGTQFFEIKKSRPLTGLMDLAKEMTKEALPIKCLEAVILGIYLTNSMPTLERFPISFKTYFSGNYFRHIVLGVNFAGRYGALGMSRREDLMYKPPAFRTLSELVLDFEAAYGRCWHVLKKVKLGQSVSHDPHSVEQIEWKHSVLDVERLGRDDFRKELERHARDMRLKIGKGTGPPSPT

Molecular target: VASH1^44–315 (human) (UniProt Q7L8A9)
Experiment: crystal structure; co-expressed and co-purified VASH1 44-315 / SVBP 1-66 heterodimer; 2.28 Å, Pt-SAD phasing; one complex in the asymmetric unit; both purified

B1: SVBP^1–66 (protein, UniProt Q8N300 1-66)
chain: MDPPARKEKTKVKESVSRVEKAKQKSAQQELKQRQRAEIYALNRVMTELEQQQFDEFCKQMQPPGE
binding: binds
